# Hit rate of the full screen: of about 350,000 compounds, about 1,200 (0.34%) were called active. Inconclusive means that the source gave no clear call. Such entries were picked first, then a sample of the others. The call rests on the fitted dose curve; in most records, active means well fitted inhibition curve with a large enough effect; inconclusive means small, poorly fitted or top-dose-only effect; inactive means no such curve, though single readings can be large or run the other way. A potency beside an inconclusive call is a rough fit, not a confirmed value.
# Chains of the proteins cited; added tags and fusions are not shown.
# UniProt P27695, whole entry, looked up: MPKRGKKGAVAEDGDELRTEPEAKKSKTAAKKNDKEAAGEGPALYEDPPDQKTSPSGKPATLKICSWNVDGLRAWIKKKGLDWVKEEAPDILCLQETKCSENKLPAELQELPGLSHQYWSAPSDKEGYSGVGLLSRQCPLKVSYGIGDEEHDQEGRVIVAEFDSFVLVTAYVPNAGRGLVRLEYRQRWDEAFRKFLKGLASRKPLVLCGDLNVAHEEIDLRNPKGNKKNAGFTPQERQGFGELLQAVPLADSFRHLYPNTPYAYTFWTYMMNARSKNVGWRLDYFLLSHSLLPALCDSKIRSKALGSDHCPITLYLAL
# Target: DNA repair nuclease/redox regulator APEX1 (Homo sapiens) (UniProt P27695)
# Test: qHTS Assay for Inhibitors of the Human Apurinic/apyrimidinic Endonuclease 1 (APE1); further: nearly all actives have a fitted effect of over 55% in size;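 on activity change, negative = inhibition: plate controls were vehicle for no effect and reference inhibitor for full effect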
# Conditions: recombinant APE1, TAMRA/BHQ-2 abasic DNA cleavage fluorescence; activity change, negative = inhibition: at 65.8 µM (top of the series)
# How it was run: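 Kinetic fluorescence read (525 ex/598 em nm, three reads 60 s apart) of AP-site incision; signal = third minus first read. Enzyme 0.75 nM, dual-labelled THF duplex 50 nM, compound preincubation 15 min RT.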
# Potency means the concentration at half of the fitted maximal effect.
SMILES,"activity change, negative = inhibition",Potency
CCOC(=O)c1cc2c(=O)n3ccccc3nc2n(Cc2ccco2)c1=NC(=O)c1cccnc1,inactive: -9.65%,
CCS(=O)(=O)N1Cc2ccccc2CC1C(=O)Nc1nnc(SCc2ccc(C#N)cc2)s1 (configuration not stated),inactive: 4.11%,
CC(=O)Nc1cc(C)nn1-c1nc2ccccc2s1,,"inconclusive: 0.282 µM [inhibitor, full curve, poor fit]"
O=C(NCc1nc2ccccc2[nH]1)C1=C[C@H](c2ccc3c(c2)OCO3)C[C@H](OCCCCO)O1,,"inconclusive: 3.16 µM [inhibitor, single point]"
CC(C)C(=O)NC(=O)C1CCCN1C(=O)/C=C/c1ccccc1 (configuration not stated),,"inconclusive: 7.94 µM [inhibitor, single point]"
CCCCc1nc2ccn(CC(=O)N(C)C)c(=O)c2n1Cc1ccc(-c2ccccc2-c2nn[nH]n2)cc1,,"inconclusive: 28.2 µM [inhibitor, single point]"
NC(=O)[C@H]1CC2(CC(c3cccc(NC(=O)[C@H]4CCC(=O)N4)c3)=NO2)CN1C(=O)CC(c1ccccc1)c1ccccc1 (some centres not stated),,"inconclusive: 22.4 µM [inhibitor, partial curve]"
CN(C)c1ncc2nc(-c3cc(F)cc(F)c3)c(=O)n(C3CC3)c2n1,,"inconclusive: 39.8 µM [inhibitor, single point]"
COc1cc(Br)c(CC(=O)O)cc1OC,,"inconclusive: 11.2 µM [inhibitor, single point]"
O=C(O)CCc1ccc(-c2cccs2)o1,,"inconclusive: 31.6 µM [inhibitor, partial curve]"
COc1cccc(C2CC(c3cccc(NS(C)(=O)=O)c3)=NN2C(=O)c2ccccc2)c1OC (configuration not stated),,"inconclusive: 0.0631 µM [inhibitor, full curve, poor fit]"
NNC(=O)c1sccc1OCc1ccc(Cl)cc1Cl,,"inconclusive: 35.5 µM [inhibitor, partial curve]"
Cc1cc(Oc2ccc(C#N)cc2)nc(NCc2ccccc2)n1,inactive: 1.13%,
Fc1cccc(NC(=S)NNc2c3ccccc3nc3ccccc23)c1,,"inconclusive: 22.4 µM [inhibitor, single point]"
CCOC(=O)C1(CCCc2ccccc2)CCN(C(=O)C2CCCO2)CC1 (configuration not stated),inactive: 3.27%,
O=[N+]([O-])c1ccc(-c2nc(-c3ccc(F)cc3)c(-c3ccncc3)[nH]2)cc1,,"inconclusive: 44.7 µM [inhibitor, single point]"
Cc1cccc(S(=O)(=O)C(C#N)c2nc3ccccc3nc2N2CCCC2)c1 (configuration not stated),,"inconclusive: 0.794 µM [inhibitor, partial curve, poor fit]"
O=c1c2ccccc2nc(-c2ccco2)n1/N=C/c1ccco1,,"inconclusive: 39.8 µM [inhibitor, single point]"
C/C(=C1/SC(=S)N(CCC(=O)O)C1=O)c1ccc(O)cc1,,"inconclusive: 39.8 µM [inhibitor, single point]"
CCNc1ncc2nc(-c3cccs3)c(=O)n(Cc3ccc(F)cc3)c2n1,,"inconclusive: 31.6 µM [inhibitor, single point]"
CCOC(=O)Cc1cc(=O)n(-c2nc3ccccc3s2)[nH]1,,"inconclusive: 39.8 µM [inhibitor, single point]"

SMILES,"activity change, negative = inhibition",Potency
C=CCN(C(=O)c1cc(C)cc(C)c1)C1(C(=O)Nc2ccccc2)CCN(C(C)C)CC1,,"inconclusive: 1 µM [inhibitor, full curve, poor fit]"
COC(=O)c1ccc(COc2ccc(/C=C/C(=O)c3ccc(OC)c(CSCC(=O)O)c3)cc2OC)cc1,,"inconclusive: 21.2 µM [inhibitor, single point]"
CCc1ccccc1NC(=S)N(Cc1cccs1)C1CCCC1,,"inconclusive: 7.08 µM [inhibitor, single point]"
COc1ccc(CNc2ccnc(-c3ccccc3CN(C)C)n2)c(OC)c1,,"inconclusive: 3.16 µM [inhibitor, single point]"
O=C(Nc1cc(Cl)ccn1)C1(c2ccccc2)CC1(Cl)Cl (configuration not stated),,"inconclusive: 0.0126 µM [inhibitor, full curve, poor fit]"
O=C(CCC(=O)c1cccs1)Nc1ccc(N2CCCCC2)cc1,inactive: 6.04%,
CCn1c(=O)c2cc(S(=O)(=O)NCc3ccccc3)ccc2n(CC)c1=O,,"inconclusive: 5.01 µM [inhibitor, single point]"
O=C1O[C@@H]([C@@H](O)CO)[C@@H](O)[C@H]1O,,"inconclusive: 12.6 µM [inhibitor, partial curve]"
CCCCC1C(=O)CC[C@H]2[C@@H]1CC(=O)[C@@H]2C/C=C\CCCC(=O)O (some centres not stated),inactive: 10.1%,
N#Cc1c(-c2cccc(O)c2)no[n+]1[O-],inactive: -3.12%,
Cc1cc(C)c(S(=O)(=O)Nc2cc(SCC(=O)O)c(O)c3ccccc23)cc1C,,"inconclusive: 44.7 µM [inhibitor, single point]"
C=CCN(C(=O)Cc1cccs1)c1nc(-c2ccc(S(C)(=O)=O)cc2)cs1,inactive: 16.7%,
Cc1cc(C)cc(OCC(O)CN2CCC(CN3C(=O)c4cccc5cccc(c45)C3=O)CC2)c1 (configuration not stated),inactive: 0.236%,
CCOC(=O)C1=C(C)N=c2s/c(=C3\C(=O)Nc4ccccc43)c(=O)n2C1c1ccc2c(c1)OCO2 (configuration not stated),inactive: 0.993%,
N#C/C(=C\c1ccc(-c2cccc([N+](=O)[O-])c2)o1)c1nnc(N2CCOCC2)n1-c1ccccc1,,"inconclusive: 3.16 µM [inhibitor, single point]"
COc1ccc(C(C)=O)cc1COC(=O)c1c(C)noc1C,,"inconclusive: 4.47 µM [inhibitor, single point]"
CCCC(=O)Nc1nc2n(n1)C(c1ccccc1)CC(=O)N2 (configuration not stated),,"inconclusive: 10 µM [inhibitor, partial curve, poor fit]"
O=C1NC(c2ccccc2)=N/C1=C/c1ccco1,inactive: -0.275%,
Cc1ccc(-n2c(C)cc(/C=C3\SC(=O)NC3=O)c2C)cc1,inactive: 38.8%,
O=C1c2ccccc2C(=O)N1CCc1csc(NNc2nc(CCN3C(=O)c4ccccc4C3=O)cs2)n1,,"inconclusive: 3.16 µM [inhibitor, full curve, poor fit]"
O=C(CSc1ncnc2nc[nH]c12)Nc1nnc(SCc2ccc(Cl)c(Cl)c2)s1,,"inconclusive: 31.6 µM [inhibitor, single point]"

# An excerpt of these results, bar-delimited:
SMILES | activity change, negative = inhibition | Potency
O=C(CCC(=O)c1cccs1)Nc1ccc(N2CCCCC2)cc1 | inactive: 6.04% | 
CCn1c(=O)c2cc(S(=O)(=O)NCc3ccccc3)ccc2n(CC)c1=O |  | inconclusive: 5.01 µM [inhibitor, single point]
O=C1O[C@@H]([C@@H](O)CO)[C@@H](O)[C@H]1O |  | inconclusive: 12.6 µM [inhibitor, partial curve]
CCCCC1C(=O)CC[C@H]2[C@@H]1CC(=O)[C@@H]2C/C=C\CCCC(=O)O (some centres not stated) | inactive: 10.1% | 
